{"sequences": {"note": "The chains behind the UniProt entries cited, without tags or fusion partners.", "UniProt P03372, whole entry": "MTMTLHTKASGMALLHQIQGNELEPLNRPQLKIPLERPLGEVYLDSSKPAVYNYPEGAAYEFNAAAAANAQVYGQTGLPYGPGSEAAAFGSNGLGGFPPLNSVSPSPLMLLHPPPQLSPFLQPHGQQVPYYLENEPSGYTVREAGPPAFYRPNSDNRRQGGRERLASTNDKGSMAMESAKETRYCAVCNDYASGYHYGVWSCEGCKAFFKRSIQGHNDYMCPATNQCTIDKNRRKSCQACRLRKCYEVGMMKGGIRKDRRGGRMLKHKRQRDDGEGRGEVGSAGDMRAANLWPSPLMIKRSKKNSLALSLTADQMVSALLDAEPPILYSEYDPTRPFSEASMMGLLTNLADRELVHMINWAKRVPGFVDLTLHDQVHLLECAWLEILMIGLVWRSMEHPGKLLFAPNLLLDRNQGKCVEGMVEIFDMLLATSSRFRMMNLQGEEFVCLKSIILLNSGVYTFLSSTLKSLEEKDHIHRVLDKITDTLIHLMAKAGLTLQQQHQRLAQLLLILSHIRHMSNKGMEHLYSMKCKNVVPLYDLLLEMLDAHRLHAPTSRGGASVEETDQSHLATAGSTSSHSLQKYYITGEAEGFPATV"}, "source": "paper PMC2362355", "target": "oestrogen receptor (ER), recombinant human (human) (UniProt P03372)", "assay": "EMSA", "details": "no ligand, less intense band than with oestradiol; 20 mM HEPES pH 7.9, 60 mM KCl, 5 mM MgCl2, 2 mM DTT, 10% glycerol, 100 ug (unit prefix not given) BSA, 380 fmol ER, 6 ng ERE, 20 ul; 20 C 20 min then 37 C 15 min; commercial protein; label: 32P end label (T4 PNK)", "note": "For at least one entry, the source does not settle the construct or the ends of the probe. Weaker means in comparison with the reference protein, sequence or condition of that experiment.", "data": [{"sequence": "GATCCAGGTCACAGTGACCTGGGCCCG (double strand) [consensus ERE 27 bp]", "values": [{"measurement": "binding result", "value": "binds more weakly"}]}]}
